51 compounds from PubChem BioAssay AID1794845 (National Center for Advancing Translational Sciences (NCATS), 2023) can be followed below.

The chains behind the UniProt entries cited, without tags or fusion partners. Where a name states a change or a piece, a line headed by the entry shows the natural chain unless it says otherwise.
UniProt C7C422: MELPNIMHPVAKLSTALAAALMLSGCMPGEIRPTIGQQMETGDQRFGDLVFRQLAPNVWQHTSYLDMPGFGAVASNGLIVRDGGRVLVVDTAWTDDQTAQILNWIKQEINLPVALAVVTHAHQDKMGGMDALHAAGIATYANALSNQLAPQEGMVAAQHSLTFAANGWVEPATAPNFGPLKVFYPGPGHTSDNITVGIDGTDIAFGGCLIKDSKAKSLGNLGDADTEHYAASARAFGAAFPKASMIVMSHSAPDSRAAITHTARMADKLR

The whole screen tested about 6,900 compounds, of which fewer than 10 were called active. The call rests on the fitted dose curve; in most records, active means well fitted curve in the direction sought with a large enough effect; inconclusive means small, poorly fitted or top-dose-only effect, or another doubt; inactive means no such curve, though single readings can be large or run the other way. This is one part of the list.

This assay deals with Metallo-beta-lactamase type 2 (Klebsiella pneumoniae) (UniProt C7C422). The experiment in a line: qHTS to identify inhibitors of the New Delhi Metallo-beta-lactamase (NDM): primary screen against the NCATS Gemini Collection. Further: % of control where 0% means no effect. The settings on record: NDM-1 enzyme, meropenem hydrolysis, absorbance 300 nm; at 38.4 µM (top of the series) unless noted. The method, boiled down:
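NDM-1 at 2 nM final in 50 mM HEPES pH 7.0, 1 uM ZnSO4, 0.01% Tween20, preincubated >30 min with compound. Meropenem 50 uM final added; absorbance at 300 nm after 30 min.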
For the compound `O=C(O)C1=NOC2CN(Cc3ccccc3)CC12` (stereo unspecified), the activity % (negative = inhibition) is inactive: 0.121% [at 77.1 µM]. Regarding `COc1cc2c(cc1Oc1ccccc1)NC(=O)C21CCN(CC2CC2)CC1`, the activity % (negative = inhibition) is inactive: 9.2% [at 57.5 µM]. The same measure for `CC1=NOC2(CCN(Cc3cc(C)on3)C2)C1` (stereo unspecified): inactive: -1.49% [at 57.5 µM]. For the compound `CCn1cc(CN2CCN(C(=O)COc3ccccc3)CC2)ccc1=O`, the activity % (negative = inhibition) was inactive: 2.36%. As to `N#Cc1cccc(NC(=O)NC[C@H]2C[C@@H]3CCN2C[C@@H]3CN2CCN(c3ccccn3)CC2)c1`, the activity % (negative = inhibition) was inactive: -0.739%. Next, `O=C1NC2(CCN(Cc3ccccn3)C2)Oc2ccccc21` (stereo unspecified): inactive: 6.24% [at 57.5 µM]. The same measure for `Cn1nc(C2CCCCC2)cc1[C@H]1CN2CC[C@H]1C[C@@H]2CNC(=O)NCc1ccccc1`: inactive: -6.54%; for `CCN1CCN(c2ccc(Cl)nn2)C(=O)C1`: inactive: 1.68% [at 57.5 µM]; for `CSc1ccc(-c2ccc(=O)n3c2[C@@H]2C[C@@H](CN(C(=O)Nc4cccc(F)c4)C2)C3)cc1`: inactive: 9.87%. With `CC(=O)c1ccc(NC(=O)OC[C@H]2C[C@@H]3CCN2C[C@@H]3c2cc(C3CCCC3)nc(-c3ccncc3)n2)cc1`, the activity % (negative = inhibition) was inactive: 16.3%.

For `CN1CCN(C(=O)Cc2c[nH]c3ncc(-c4cccc(O)c4)cc23)CC1`, the activity % (negative = inhibition) is inactive: -0.773% [at 57.5 µM]. `O=C(Nc1ccccc1)Nc1ccc2n(c1=O)C[C@H]1C[C@@H]2CN(C(=O)c2ccccc2)C1`: the activity % (negative = inhibition) was inactive: 3.93% [at 57.5 µM]. Take `COC[C@H]1C[C@@H](NC2CCOCC2)[C@H](O)[C@@H]1O`: the activity % (negative = inhibition) is inactive: 8.17% [at 77.1 µM]. Consider `CC(C)CCN1CCC2CC(=O)NCCC2C1` (stereo unspecified), for which the activity % (negative = inhibition) was inactive: -6.45% [at 77.1 µM]. As for `O=C([C@H]1CN2CCC1C[C@@H]2Cn1cc(CCO)nn1)N1CCOCC1` (stereo partly specified), the activity % (negative = inhibition) was inactive: 0.664% [at 57.5 µM]. Regarding `CC(=O)N1[C@H]2CC[C@@H]1c1cnc(-c3ccc(F)cc3)nc1C2`, the activity % (negative = inhibition) was inactive: 12.2%. Consider `Cc1ccccc1-c1ccc2n(c1=O)C[C@H]1C[C@@H]2CN(C(=O)NC2CCCCC2)C1`, for which the activity % (negative = inhibition) was inactive: 13.2% [at 57.5 µM]. On to `OCC1CN(c2ncccn2)CC12CCNCC2` (stereo unspecified), for which the activity % (negative = inhibition) was inactive: 10.8%. The same measure for `O=C(O)COCC(=O)N1C[C@@H]2C[C@H](C1)c1ccc(-c3cc4ccccc4s3)c(=O)n1C2`: inactive: 1.54%; for `Cn1cc(CNCC2(CO)C[C@@H](O)[C@@H](O)C2)c2ccccc21` (stereo partly specified): inactive: 12.5% [at 57.5 µM]; for `O=[S+]1([O-])NCC2(CCN(Cc3ccccn3)C2)Nc2ccccc21` (stereo unspecified): inactive: -3.85%. Take `O=C1NCCCCCN(Cc2cccnc2)[C@H]2CCC[C@@H]12`: the activity % (negative = inhibition) was inactive: 13.3%. Regarding `CC(=O)Nc1ccc(-c2ccc3n(c2=O)C[C@H]2C[C@@H]3CN(C3CCN(C)CC3)C2)cc1`, the activity % (negative = inhibition) was inactive: 3.85% [at 57.5 µM]. Turning to `OC[C@H]1C[C@@H](NC2CCC2)[C@H](O)[C@@H]1O`, the activity % (negative = inhibition) is inactive: -1.27% [at 77.1 µM]. With `CN(C)CCNC(=O)C1CNCC12CCOCC2` (stereo unspecified), the activity % (negative = inhibition) was inactive: 0.0797%. Turning to `CCC(CC)c1cc([C@H]2CN3CC[C@H]2C[C@@H]3CNC(=O)C2CCC2)nc(-c2ccncc2)n1`, the activity % (negative = inhibition) was inactive: 4.42%. `CN1CCOC[C@H]2CCNC[C@H]21`: the activity % (negative = inhibition) is inactive: 16.3%. The same measure for `Cc1ncc2c(n1)C[C@@H]1CC[C@H]2N1S(=O)(=O)Cc1ccccc1`: inactive: 1.17%; for `Cc1ccc(NC(=O)N2C[C@@H]3C[C@H](C2)c2c(-c4cccs4)ccc(=O)n2C3)cc1`: inactive: 2.07% [at 57.5 µM]; for `FC(F)(F)CN1C2CCC1CN(c1nnc(Cl)c3ccccc13)C2`: inactive: -1.65%. Turning to `CSc1nccc(N2CCC3(CCCN(CC4CC4)C3)C2)n1` (stereo unspecified), the activity % (negative = inhibition) is inactive: 23.3%. `CCCS(=O)(=O)Nc1ccc(=O)n2c1[C@@H]1C[C@@H](CN(C(=O)Nc3ccc(OC)cc3)C1)C2`: the activity % (negative = inhibition) is inactive: 1%. For `C#C[C@H]1CN2CC[C@H]1C[C@@H]2CNC(=O)C1CC1`, the activity % (negative = inhibition) is inactive: 37.1% [at 77.1 µM].

As to `COc1cccc(CC(=O)N2CCCCCC2CN2CCCC2)c1` (stereo unspecified), the activity % (negative = inhibition) is inactive: -0.424%.

In the case of `C=C[C@H]1CN2CC[C@H]1C[C@@H]2CNCc1ccc2c(c1)OCO2`, the activity % (negative = inhibition) is inactive: -6.53% [at 57.5 µM]. `O=c1c(C2CCCCC2)ccc2n1C[C@H]1C[C@@H]2CN(S(=O)(=O)c2ccccc2)C1`: the activity % (negative = inhibition) was inactive: 20.1% [at 57.5 µM]. On to `C=C[C@H]1CN2CC[C@H]1C[C@@H]2CNC(=O)CC(C)(C)C`, for which the activity % (negative = inhibition) was inactive: -2% [at 77.1 µM].

As to `Cc1ccc(CN2C[C@@H]3C(=O)N(C)C(=O)[C@@H]3C2)o1`, the activity % (negative = inhibition) is inactive: 14.3%. Take `O=[S+]1([O-])NC2(CCN(Cc3cccnc3)C2)COc2ccncc21` (stereo unspecified): the activity % (negative = inhibition) was inactive: 2.62%. Consider `CC(C)NC(=O)NC[C@H]1C[C@@H]2CCN1C[C@@H]2CN1CCSCC1`, for which the activity % (negative = inhibition) was inactive: 2.5% [at 57.5 µM]. With `O=C(c1cccs1)N1C[C@@H]2C[C@H](C1)c1ccc(C3CCCCC3)c(=O)n1C2`, the activity % (negative = inhibition) is inactive: 3.53% [at 57.5 µM]. Next, `CC(C)C1CN2CCCC2CN1` (stereo unspecified): inactive: -8.69% [at 77.1 µM]; `O=C(O)c1cn(Cc2ccc(F)cc2Cl)nn1`: inactive: 4.83%. For `CC(=O)N(C1CC1)C1CCOC2(CCNCC2)C1` (stereo unspecified), the activity % (negative = inhibition) is inactive: -0.568%.

On to `CN1CC2(C1)C(=O)N(C)C(=O)[C@@H]1C[C@@H](O)CN12`, for which the activity % (negative = inhibition) was inactive: 0.427% [at 77.1 µM]. Consider `O=C(C1CCC1)N1[C@H]2CC[C@@H]1c1cnc(-c3ccccc3)nc1C2`, for which the activity % (negative = inhibition) was inactive: 14%. Regarding `O=C(NCc1ccc(F)cc1)[C@H]1CN2CC[C@H]1C[C@@H]2Cn1cc(-c2ccccc2)nn1`, the activity % (negative = inhibition) was inactive: 5.86% [at 57.5 µM]. Next, `O=C(c1ccc2c(c1)OCO2)N1CCC(C(=O)O)(c2ccccc2)CC1`: inactive: 3.51%; `COc1cccc(CN2CCCCCCNC(=O)[C@@H]3CCC[C@@H]32)n1`: inactive: -2.35%; `O=C(Nc1nccs1)[C@H]1CN2CC[C@H]1C[C@@H]2Cn1cc(C2(O)CCCCC2)nn1`: inactive: 21.5% [at 57.5 µM]. The same measure for `COc1ccccc1-c1cc([C@H]2CN3CC[C@H]2C[C@@H]3CNS(=O)(=O)c2ccccc2)n(C)n1`: inactive: -1.55%.
